The experiment addresses soluble CD40 (Homo sapiens (Human)) (UniProt P25942). The experiment can be described thus: ELISA-type assays. For orientation: In an ELISA, binding on a coated surface is turned into a signal by an enzyme label.

The chains behind the UniProt entries cited, without tags or fusion partners. Where a name states a change or a piece, a line headed by the entry shows the natural chain unless it says otherwise.
UniProt P25942: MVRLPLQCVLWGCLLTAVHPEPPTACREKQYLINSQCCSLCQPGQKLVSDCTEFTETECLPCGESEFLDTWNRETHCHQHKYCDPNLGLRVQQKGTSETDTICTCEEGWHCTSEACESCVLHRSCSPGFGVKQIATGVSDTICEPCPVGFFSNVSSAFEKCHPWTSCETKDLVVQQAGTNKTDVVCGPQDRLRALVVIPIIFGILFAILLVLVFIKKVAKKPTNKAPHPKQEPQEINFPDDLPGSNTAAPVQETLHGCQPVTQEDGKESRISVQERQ

No constants are given. Whether binding was seen depends on the method and setting. Some entries that bind do so weakly or less than the wild type.

B1: monoclonal antibody CHIR-12.12 (antibody, human IgG1, kappa, V domains shown)
VH: QVQLVESGGGVVQPGRSLRLSCAASGFTFSSYGMHWVRQAPGKGLEWVAVISYEESNRYHADSVKGRFTISRDNSKITLYLQMNSLRTEDTAVYYCARDGGIAAPGPDYWGQGTLVTVSS
VL: DIVMTQSPLSLTVTPGEPASISCRSSQSLLYSNGYNYLDWYLQKPGQSPQVLISLGSNRASGVPDRFSGSGSGTDFTLKISRVEAEDVGVYYCMQARQTPFTFGPGTKVDIRR
Consider B1, for which the binding result is reported as “binds”.

B2: monoclonal antibody CHIR-5.9 (antibody, human IgG1, kappa, V domains shown)
VH: EVQLVQSGAEVKKPGESLKISCKGSGYSFTSYWIGWVRQMPGKGLEWMGIIYPGDSDTRYSPSFQGQVTISADKSISTAYLQWSSLKASDTAMYYCARGTAAGRDYYYYYGMDVWGQGTTVTVSS
VL: AIVMTQPPLSSPVTLGQPASISCRSSQSLVHSDGNTYLNWLQQRPGQPPRLLIYKFFRRLSGVPDRFSGSGAGTDFTLKISRVEAEDVGVYYCMQVTQFPHTFGQGTRLEIKR
As to B2, the binding entry is reported as “binds”.
